Among the data in the supplement of paper PMC12819154, “High-throughput peptide-centric local stability assay extends protein–ligand identification to membrane proteins, tissues and bacteria” (Nature Structural & Molecular Biology, 2025) are log2 fold change values, retold here.

Chains of the proteins cited; added tags and fusions are not shown. Lines headed by an entry give the natural chain unless they say otherwise; changes in a name come on top.
UniProt Q7TPV4: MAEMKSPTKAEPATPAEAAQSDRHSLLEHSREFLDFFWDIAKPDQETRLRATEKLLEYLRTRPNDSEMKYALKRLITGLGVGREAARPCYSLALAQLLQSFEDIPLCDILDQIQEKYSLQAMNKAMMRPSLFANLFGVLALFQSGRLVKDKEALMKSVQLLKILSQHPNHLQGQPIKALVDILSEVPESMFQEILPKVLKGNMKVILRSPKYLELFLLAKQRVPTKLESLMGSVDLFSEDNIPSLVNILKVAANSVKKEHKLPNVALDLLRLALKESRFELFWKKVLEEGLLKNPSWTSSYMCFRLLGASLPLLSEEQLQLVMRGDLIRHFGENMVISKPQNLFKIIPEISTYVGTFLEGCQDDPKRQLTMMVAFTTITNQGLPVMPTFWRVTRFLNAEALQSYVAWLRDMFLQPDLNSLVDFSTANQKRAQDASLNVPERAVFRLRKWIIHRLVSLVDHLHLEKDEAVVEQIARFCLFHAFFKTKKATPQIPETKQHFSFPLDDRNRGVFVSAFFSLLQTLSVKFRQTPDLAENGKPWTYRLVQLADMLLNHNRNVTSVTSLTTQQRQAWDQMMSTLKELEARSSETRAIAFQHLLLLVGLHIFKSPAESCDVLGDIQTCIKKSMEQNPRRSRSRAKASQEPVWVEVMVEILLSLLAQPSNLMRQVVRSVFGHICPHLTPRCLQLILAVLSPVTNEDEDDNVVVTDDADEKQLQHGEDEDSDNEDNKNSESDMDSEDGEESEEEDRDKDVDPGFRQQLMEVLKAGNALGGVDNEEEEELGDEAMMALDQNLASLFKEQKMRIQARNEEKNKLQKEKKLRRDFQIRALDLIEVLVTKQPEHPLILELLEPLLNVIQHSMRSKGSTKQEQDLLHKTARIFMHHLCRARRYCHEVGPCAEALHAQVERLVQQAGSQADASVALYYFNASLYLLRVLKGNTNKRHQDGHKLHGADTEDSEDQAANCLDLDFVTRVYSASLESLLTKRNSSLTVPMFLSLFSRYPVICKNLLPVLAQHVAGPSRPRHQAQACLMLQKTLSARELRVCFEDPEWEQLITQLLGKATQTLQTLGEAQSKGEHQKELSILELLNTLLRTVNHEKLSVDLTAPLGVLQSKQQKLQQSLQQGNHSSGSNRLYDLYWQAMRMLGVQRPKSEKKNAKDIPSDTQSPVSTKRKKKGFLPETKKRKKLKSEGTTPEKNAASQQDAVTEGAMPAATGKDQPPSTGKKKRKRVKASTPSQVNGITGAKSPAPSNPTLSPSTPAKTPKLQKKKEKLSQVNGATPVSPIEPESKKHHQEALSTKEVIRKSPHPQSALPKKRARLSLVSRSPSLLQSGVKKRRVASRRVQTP
UniProt Q80U49: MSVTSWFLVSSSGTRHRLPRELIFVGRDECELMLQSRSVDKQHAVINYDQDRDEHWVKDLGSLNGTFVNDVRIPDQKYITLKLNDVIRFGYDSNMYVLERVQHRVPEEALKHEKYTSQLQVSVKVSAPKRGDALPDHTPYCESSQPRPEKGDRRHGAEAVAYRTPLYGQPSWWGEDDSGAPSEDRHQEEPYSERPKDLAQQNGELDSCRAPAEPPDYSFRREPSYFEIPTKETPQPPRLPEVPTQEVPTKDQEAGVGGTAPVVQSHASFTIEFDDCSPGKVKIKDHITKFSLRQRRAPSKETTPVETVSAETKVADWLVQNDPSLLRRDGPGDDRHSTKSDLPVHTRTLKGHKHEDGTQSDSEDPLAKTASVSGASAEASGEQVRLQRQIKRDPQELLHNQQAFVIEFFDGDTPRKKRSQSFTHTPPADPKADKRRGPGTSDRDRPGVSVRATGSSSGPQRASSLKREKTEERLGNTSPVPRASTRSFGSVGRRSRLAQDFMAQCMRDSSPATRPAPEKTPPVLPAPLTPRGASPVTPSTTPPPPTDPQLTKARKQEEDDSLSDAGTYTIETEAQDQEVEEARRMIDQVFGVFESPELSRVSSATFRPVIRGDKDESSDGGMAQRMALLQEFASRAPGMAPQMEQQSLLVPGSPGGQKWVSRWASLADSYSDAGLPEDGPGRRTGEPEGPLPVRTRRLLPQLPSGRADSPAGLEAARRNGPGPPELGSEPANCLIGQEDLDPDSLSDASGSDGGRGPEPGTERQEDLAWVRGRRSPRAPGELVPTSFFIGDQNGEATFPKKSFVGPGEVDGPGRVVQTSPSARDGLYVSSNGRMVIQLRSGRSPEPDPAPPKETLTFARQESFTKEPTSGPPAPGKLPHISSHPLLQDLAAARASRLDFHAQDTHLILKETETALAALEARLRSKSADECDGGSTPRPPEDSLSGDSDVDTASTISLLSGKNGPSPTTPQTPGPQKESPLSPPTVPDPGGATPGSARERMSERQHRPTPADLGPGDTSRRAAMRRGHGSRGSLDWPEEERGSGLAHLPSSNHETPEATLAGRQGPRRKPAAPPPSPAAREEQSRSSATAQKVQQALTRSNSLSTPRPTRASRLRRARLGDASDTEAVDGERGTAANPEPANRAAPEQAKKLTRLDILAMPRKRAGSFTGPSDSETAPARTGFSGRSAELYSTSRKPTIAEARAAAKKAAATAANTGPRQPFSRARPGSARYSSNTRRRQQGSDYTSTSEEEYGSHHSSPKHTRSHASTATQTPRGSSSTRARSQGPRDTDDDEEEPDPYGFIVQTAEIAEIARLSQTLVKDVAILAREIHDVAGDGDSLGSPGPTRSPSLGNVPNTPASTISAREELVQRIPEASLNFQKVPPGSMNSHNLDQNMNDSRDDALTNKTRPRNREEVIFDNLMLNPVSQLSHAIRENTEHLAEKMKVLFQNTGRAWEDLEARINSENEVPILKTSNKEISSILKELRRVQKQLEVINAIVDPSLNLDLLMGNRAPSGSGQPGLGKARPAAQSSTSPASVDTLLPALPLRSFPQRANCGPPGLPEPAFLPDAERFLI
UniProt Q6ZPU9: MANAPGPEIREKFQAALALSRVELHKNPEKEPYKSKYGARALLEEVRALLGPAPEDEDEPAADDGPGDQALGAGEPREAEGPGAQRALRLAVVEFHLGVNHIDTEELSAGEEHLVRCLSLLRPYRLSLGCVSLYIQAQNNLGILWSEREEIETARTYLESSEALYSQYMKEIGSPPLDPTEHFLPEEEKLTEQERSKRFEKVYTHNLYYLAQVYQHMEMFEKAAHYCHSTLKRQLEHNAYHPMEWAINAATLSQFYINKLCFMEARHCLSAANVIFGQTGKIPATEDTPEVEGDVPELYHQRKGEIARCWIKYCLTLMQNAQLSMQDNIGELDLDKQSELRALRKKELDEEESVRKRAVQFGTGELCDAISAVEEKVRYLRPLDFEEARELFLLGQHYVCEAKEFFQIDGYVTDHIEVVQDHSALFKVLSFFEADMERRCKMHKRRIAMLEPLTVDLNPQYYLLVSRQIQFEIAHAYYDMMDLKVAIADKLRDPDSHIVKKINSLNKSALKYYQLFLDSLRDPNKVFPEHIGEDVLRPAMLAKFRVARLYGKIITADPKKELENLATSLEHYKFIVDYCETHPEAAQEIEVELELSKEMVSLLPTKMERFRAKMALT
UniProt Q78KK3: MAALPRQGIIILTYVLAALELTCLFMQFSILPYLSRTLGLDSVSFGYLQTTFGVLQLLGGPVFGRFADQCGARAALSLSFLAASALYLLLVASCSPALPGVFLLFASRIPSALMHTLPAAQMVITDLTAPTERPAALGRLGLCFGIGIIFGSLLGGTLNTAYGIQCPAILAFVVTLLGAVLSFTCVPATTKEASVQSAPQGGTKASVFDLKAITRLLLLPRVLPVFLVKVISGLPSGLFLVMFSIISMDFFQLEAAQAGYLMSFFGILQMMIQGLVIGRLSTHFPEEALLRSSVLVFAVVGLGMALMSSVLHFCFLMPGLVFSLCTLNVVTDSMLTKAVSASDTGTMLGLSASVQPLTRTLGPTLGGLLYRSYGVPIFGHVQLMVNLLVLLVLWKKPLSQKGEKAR
UniProt Q71RI9: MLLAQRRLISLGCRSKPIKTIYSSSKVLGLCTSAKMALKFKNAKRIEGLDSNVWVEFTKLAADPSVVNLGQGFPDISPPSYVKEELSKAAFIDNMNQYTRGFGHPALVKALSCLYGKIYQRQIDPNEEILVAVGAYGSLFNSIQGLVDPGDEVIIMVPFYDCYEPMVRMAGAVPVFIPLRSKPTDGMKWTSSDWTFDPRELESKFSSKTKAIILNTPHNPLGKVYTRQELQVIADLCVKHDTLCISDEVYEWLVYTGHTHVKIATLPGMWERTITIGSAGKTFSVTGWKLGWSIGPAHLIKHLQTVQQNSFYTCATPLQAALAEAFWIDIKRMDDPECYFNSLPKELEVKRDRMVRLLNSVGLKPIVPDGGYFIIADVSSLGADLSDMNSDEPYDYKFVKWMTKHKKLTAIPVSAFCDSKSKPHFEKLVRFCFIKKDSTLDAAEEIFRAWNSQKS
UniProt Q7TSQ8: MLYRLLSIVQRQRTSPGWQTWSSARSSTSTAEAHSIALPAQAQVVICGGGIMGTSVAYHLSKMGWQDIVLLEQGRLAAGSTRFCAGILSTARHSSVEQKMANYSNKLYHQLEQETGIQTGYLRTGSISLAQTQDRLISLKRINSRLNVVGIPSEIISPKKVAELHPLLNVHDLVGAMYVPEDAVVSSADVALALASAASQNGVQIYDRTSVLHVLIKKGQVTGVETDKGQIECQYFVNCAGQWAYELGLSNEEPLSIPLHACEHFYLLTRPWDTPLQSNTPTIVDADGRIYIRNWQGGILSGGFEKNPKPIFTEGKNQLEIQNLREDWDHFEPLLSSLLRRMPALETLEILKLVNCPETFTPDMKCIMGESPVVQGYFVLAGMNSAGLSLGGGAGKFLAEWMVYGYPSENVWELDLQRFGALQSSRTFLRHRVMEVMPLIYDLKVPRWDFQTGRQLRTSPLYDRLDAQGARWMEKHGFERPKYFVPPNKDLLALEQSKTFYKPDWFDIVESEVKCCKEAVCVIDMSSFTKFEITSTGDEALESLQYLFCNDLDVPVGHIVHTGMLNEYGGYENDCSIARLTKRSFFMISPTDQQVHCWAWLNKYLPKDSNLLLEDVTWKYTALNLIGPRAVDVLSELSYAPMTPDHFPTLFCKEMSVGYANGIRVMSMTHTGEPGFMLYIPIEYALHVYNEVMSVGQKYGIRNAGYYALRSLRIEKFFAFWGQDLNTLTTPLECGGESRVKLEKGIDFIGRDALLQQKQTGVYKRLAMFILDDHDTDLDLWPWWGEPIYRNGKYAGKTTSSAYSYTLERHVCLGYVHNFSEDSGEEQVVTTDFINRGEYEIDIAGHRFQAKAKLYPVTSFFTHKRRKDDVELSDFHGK
UniProt Q6ZPI3: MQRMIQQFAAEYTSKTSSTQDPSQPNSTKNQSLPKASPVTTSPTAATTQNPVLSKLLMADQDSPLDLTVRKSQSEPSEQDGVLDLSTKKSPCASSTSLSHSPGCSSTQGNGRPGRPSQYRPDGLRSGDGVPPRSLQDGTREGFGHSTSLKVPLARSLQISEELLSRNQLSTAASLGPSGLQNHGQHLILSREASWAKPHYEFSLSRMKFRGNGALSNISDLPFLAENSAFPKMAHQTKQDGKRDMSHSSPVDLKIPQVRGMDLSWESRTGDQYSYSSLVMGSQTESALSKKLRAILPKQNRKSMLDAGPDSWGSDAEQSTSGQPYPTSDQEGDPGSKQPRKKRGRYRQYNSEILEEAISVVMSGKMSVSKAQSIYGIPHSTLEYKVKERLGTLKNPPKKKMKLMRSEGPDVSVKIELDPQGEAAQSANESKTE
UniProt Q80T19: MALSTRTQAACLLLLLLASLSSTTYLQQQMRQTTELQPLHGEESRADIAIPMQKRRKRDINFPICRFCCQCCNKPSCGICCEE
UniProt Q71FD7: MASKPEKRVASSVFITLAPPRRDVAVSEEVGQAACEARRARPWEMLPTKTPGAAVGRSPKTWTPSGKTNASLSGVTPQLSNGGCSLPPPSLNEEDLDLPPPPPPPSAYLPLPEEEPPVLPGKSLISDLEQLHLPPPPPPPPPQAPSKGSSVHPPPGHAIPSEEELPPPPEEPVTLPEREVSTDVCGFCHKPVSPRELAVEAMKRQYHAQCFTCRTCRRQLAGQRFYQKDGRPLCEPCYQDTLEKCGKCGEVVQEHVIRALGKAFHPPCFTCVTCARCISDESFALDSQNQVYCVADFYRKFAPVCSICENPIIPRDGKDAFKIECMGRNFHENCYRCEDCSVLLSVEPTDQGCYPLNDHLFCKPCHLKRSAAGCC
UniProt Q6ZQI3: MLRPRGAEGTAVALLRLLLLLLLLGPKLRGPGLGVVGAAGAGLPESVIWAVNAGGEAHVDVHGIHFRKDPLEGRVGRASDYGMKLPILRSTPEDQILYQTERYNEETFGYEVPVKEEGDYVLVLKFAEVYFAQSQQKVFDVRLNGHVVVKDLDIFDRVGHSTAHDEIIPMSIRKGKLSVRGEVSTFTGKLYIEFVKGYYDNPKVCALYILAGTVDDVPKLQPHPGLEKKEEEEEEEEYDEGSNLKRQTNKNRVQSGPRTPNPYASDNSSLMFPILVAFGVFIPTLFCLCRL

This is one part of the list. Most values lie at the level of the controls, where differences are scatter.

Compound in the assay: CN[C@@H]1C[C@H]2O[C@@](C)([C@@H]1OC)n1c3ccccc3c3c4c(c5c6ccccc6n2c5c31)C(=O)NC4 [staurosporine]
Kind of assay: log2 fold change of tryptic peptide abundance, ligand vs vehicle (limited proteolysis) (log2 ratio); higher = more trypsin-susceptible (destabilized). As to conditions: ligand concentration: 20 uM; sample: mouse liver crude lysate; replicate design: treated separately.
For the target “UniProt Q7TPV4 (peptide sequence: EHKLPNVALDLLR, peptide start residue: 259)”, the log2 fold change is 0.145. Then “UniProt Q80U49 (peptide sequence: DRPGVSVR, peptide start residue: 444)”, with -0.271; and “UniProt Q6ZPU9 (peptide sequence: KGEIARCWIK, peptide start residue: 303)”, with 0.317; and “UniProt Q78KK3 (peptide sequence: EASVQSAPQGGTK, peptide start residue: 192)”, with 0.256. Then “UniProt Q76N33 (peptide sequence: FITLFVEKLPSHR, peptide start residue: 81)”, with 0.141; and “UniProt Q71RI9 (peptide sequence: AIILNTPHNPLGK, peptide start residue: 211)”, with -0.434. Turning to “UniProt Q7TSQ8 (peptide sequence: RKDDVELSDFHGK, peptide start residue: 866)”, the log2 fold change was found to be 0.237. Then “UniProt Q6ZPI3 (peptide sequence: AQSIYGIPHSTLEYK, peptide start residue: 371)”, with -0.00327; and “UniProt Q80T19 (peptide sequence: QTTELQPLHGEESR, peptide start residue: 32)”, with -0.112; and “UniProt Q71FD7 (peptide sequence: CGEVVQEHVIR, peptide start residue: 248)”, with 1.79. On to “UniProt Q6ZQI3 (peptide sequence: LYIEFVK, peptide start residue: 190)”, for which the log2 fold change is 0.277.
